The record followed here is PMC12040169 (PLOS Biology, 2025).

This is one part of the list.

The experiment has as its system T1, CTL2-GFP (C. trachomatis L2/434/Bu, GFP-expressing).
T1 construct: L2/434/Bu, GFP-expressing
Details: species or system HeLa; Intracellular C. trachomatis growth in HeLa cells, bulk GFP fluorescence relative to DMSO. Conditions: bulk GFP, single well; 28.5 h, 10 µM; inhibitor.
For `Cc1cccc(-c2ncc(C(=O)NCCc3c[nH]cn3)cc2-c2ccncc2)c1` [CBK036678], the “% of control remaining” value was determined as 220.236%.

As to `CC1CCCN(Cc2c(C3CCNCC3)[nH]c3ncccc23)C1` (stereo not shown) [CBK285078], the “% of control remaining” value was found to be 145.158%.

For the compound `Cn1cc(C(=O)N2CCc3ccccc3C2)c2ccccc21` [CBK200338], the “% of control remaining” value came to 112.81%.

For `O=C(C1=C(O)C(=O)N(Cc2cccnc2)C1c1cccc([N+](=O)[O-])c1)c1ccccc1` (stereo not shown) [CBK263383], the “% of control remaining” value is recorded as 107.565%.

For `CC(=O)N1N=C(c2cccnc2)OC1(C)C` [CBK023619], the “% of control remaining” value came to 118.531%.

Consider `Cc1nc(CC(=O)N2[C@H]3CCCCCN(C)[C@@]3(C)C[C@H]2c2ccccc2)cs1` [CBK286104], for which the “% of control remaining” value is listed as 87.391%.

Consider `COc1cc(CN2CCN(C/C=C/c3ccccc3)CC2)c([N+](=O)[O-])cc1OC` [CBK261550], for which the “% of control remaining” value turned out to be 110.649%.

Regarding `O=C(Nc1cccc(C(=O)O)c1)/C(=C\c1ccc2c(c1)OCO2)NC(=O)c1ccc(Br)o1` [CBK263720], the “% of control remaining” value is recorded as 100%.

Turning to `COc1ccc(-c2cnc3[nH]c(=O)n([C@@H](CO)C(C)C)c3n2)c(OC)c1OC` [CBK064774], the “% of control remaining” value stood at 108.551%.

On to `CC1CC(C)CN(C(=O)NCCCCCC(=O)O)C1` (stereo not shown) [CBK286793], for which the “% of control remaining” value is 116.281%.

Consider `O=C(Nc1cccc(C(F)(F)F)c1)c1c(O)c2ccccc2[nH]c1=O` [CBK159985], for which the “% of control remaining” value is 125.895%.

With `CCc1nc(CN2CCCC(NCc3cccc(C(N)=O)c3)C2)no1` (stereo not shown) [CBK306254], the “% of control remaining” value is listed as 194.69%.

Regarding `COCCCn1cnnc1C(C)NC(=O)N(C)Cc1nccs1` (stereo not shown) [CBK306702], the “% of control remaining” value came to 129.809%.

As for `c1ccc(N2CCN(C3CCN(Cc4ccccn4)CC3)CC2)cc1` [CBK264684G], the “% of control remaining” value is on record as 130.796%.

With `Cc1cc(C)nc(-n2[nH]c(N)cc2=O)n1` [CBK270164], the “% of control remaining” value is reported as 144.394%.

Take `Cc1cc(C(=O)N2CCc3c(sc4ncnc(N)c34)C2)sc1C` [CBK306420]: the “% of control remaining” value came to 115.23%.

For `CN(CCC#N)C(=O)c1cc2cc(Cl)ccc2[nH]1` [CBK287956], the “% of control remaining” value was determined as 113.276%.

For `CCc1ccc(C(O)CNC2CCN(c3nccs3)CC2)cc1` (stereo not shown) [CBK304215], the “% of control remaining” value was found to be 111.571%.

As to `O=C(CSc1nnc(-c2ccco2)o1)Nc1cccc2nsnc12` [CBK268006], the “% of control remaining” value was 111.626%.

As for `Cc1ccc(-c2cnc3ccccc3n2)cc1NC(=O)c1ccccc1S(=O)(=O)c1ccc([N+](=O)[O-])cc1` [CBK267690], the “% of control remaining” value is 111.312%.

Take `O=C(Nc1ccc(NC(=O)c2cc3ccccc3o2)cc1)c1ccc(-c2ccccc2)cc1` [CBK268887]: the “% of control remaining” value is listed as 134.064%.

Turning to `CC(C)(C)OCc1[nH]nc(O)c1Cc1c(Cl)cccc1Cl` [CBK089569], the “% of control remaining” value is given as 95.1825%.

For the compound `COc1ccc(C(=O)N2CCC[C@H]3NC(=O)COc4ccccc4C(=O)N[C@@H]4CCOC[C@@H]4C/C=C/C[C@@H]32)cc1` [CBK292194], the “% of control remaining” value was 101.029%.

Turning to `Cc1ccc2c(c1)C(=O)CC1(CCC3C(C(=O)NC4CCCC4)C31)O2` (stereo not shown) [CBK282716], the “% of control remaining” value was found to be 108.602%.

Turning to `COCC(=O)N[C@H]1C[C@H]2C(=O)Nc3ccc(-c4cccs4)cc3C(=O)N2C1` [CBK289358], the “% of control remaining” value is recorded as 132.39%.

For the compound `Cc1ccc(C(=O)N2CC=C(c3c[nH]c4ncccc34)CC2)cn1` [CBK297889], the “% of control remaining” value is listed as 141.171%.

Turning to `CCC(C)NC(=O)Cn1c(C2CCCNC2)cc2cccnc21` (stereo not shown) [CBK285085], the “% of control remaining” value was 134.166%.

Turning to `CCOC(=O)C1(C2CCCCC2)CCN(C(=O)C2COc3ccccc3O2)CC1` (stereo not shown) [CBK136925], the “% of control remaining” value is recorded as 96.8076%.

Regarding `Cc1ccc(CNC(=O)N2CCC3(CC2)OCCc2c3[nH]c3ccccc23)cc1` [CBK047121], the “% of control remaining” value stood at 213.572%.

Consider `CSCCC(=O)N1CCCC2(CCN(C(=O)c3cc(F)c(F)cc3F)C2)C1` (stereo not shown) [CBK131557], for which the “% of control remaining” value was 115.23%.

As to `N#Cc1ccc(NC(=O)Nc2ccccc2)cc1` [CBK086045], the “% of control remaining” value was 90.0037%.

In the case of `O=C(C1CC=CCC1)N1CCC(c2[nH]ncc2-c2ccncc2)CC1` (stereo not shown) [CBK284212], the “% of control remaining” value turned out to be 115.959%.

For the compound `Cc1c(Cl)cccc1NC(=O)CSc1nnc(Cc2cccc3ccccc23)n1-c1ccccc1` [CBK266042], the “% of control remaining” value is given as 109.539%.

With `COc1ccc([N+](=O)[O-])cc1CSc1nnc(-c2ccco2)n1C` [CBK269671], the “% of control remaining” value is reported as 113.895%.

Consider `Cc1cccc(-c2cncc(C3CCCN(C(=O)Cc4c[nH]c5ccccc45)C3)n2)c1` (stereo not shown) [CBK286149], for which the “% of control remaining” value was 133.223%.

For the compound `COc1ccccc1/C=C/C1=NN(c2ccc(F)cc2)C(c2ccccc2OC)C1` (stereo not shown) [CBK262303], the “% of control remaining” value was found to be 100%.

On to `CC(=O)Nc1ccc(S(=O)(=O)Nc2ccc(-c3cn4cccnc4n3)cc2)cc1` [CBK268671], for which the “% of control remaining” value was 74.5601%.

`O=C(NCCc1cccs1)Nc1ccc(Cl)cc1C(F)(F)F` [CBK044825]: the “% of control remaining” value came to 95.6946%.

On to `C=CCn1c(Cc2csc(NC(=O)c3cccc(NC(C)=O)c3)n2)n[nH]c1=S` [CBK297891], for which the “% of control remaining” value is recorded as 150%.

`COc1ccc2sc(Br)c(C(=O)O)c2c1` [CBK019180]: the “% of control remaining” value came to 141.404%.

Consider `O=C(c1cc2ncc(Br)cn2n1)N1CCOCC1` [CBK058513], for which the “% of control remaining” value is 144.322%.

Regarding `Cc1ccc(NC(=O)COc2ccccc2)c(NC(=O)c2ccccc2I)c1` [CBK266793], the “% of control remaining” value came to 116.241%.

On to `Fc1ccc2nc(Nc3nnc(-c4ccco4)o3)sc2c1` [CBK287488], for which the “% of control remaining” value is recorded as 138.907%.

For `COCCCOc1nccnc1NC(C)C` [CBK115876], the “% of control remaining” value amounted to 173.203%.

Regarding `O=C(Cn1ncn2c(cc3ccsc32)c1=O)N1CCCCC1` [CBK284195], the “% of control remaining” value is 85.8303%.

In the case of `COc1ccc(NC(=O)c2cc(C(F)(F)F)cc(C(F)(F)F)c2)cn1` [CBK057634], the “% of control remaining” value is 121.144%.

Consider `CCN(CC)C(=O)C1CCCN(C(=O)NCCCN2CCN(C)CC2)C1` (stereo not shown) [CBK156115], for which the “% of control remaining” value turned out to be 145.065%.

With `COc1ccc(CC(CC(=O)O)C(=O)Nc2ccc(OC)cc2)cc1` (stereo not shown) [CBK286975], the “% of control remaining” value is reported as 107.051%.

As for `COCCNc1nccnc1-c1ccsc1` [CBK038008], the “% of control remaining” value is recorded as 116.018%.

`O=C1c2ccc(Oc3cccc(Oc4ccc5c(c4)C(=O)N(c4ccccn4)C5=O)c3)cc2C(=O)N1c1ccccn1` [CBK261397]: the “% of control remaining” value is on record as 100%.

On to `O=C(N1CCCCCC1)N1CCN(S(=O)(=O)N2CCOCC2)CC1` [CBK268681], for which the “% of control remaining” value stood at 135.297%.

As to `COc1ccc(Nc2nc(-c3cccc(N)c3)cnc2N)cc1` [CBK063585], the “% of control remaining” value was 195.33%.

Turning to `COc1cc(CNc2cc(-c3ccsc3)ncn2)cc(OC)c1OC` [CBK037794], the “% of control remaining” value is on record as 182.524%.

As for `CSc1nsc(SCC(=O)Nc2cccc(NC(C)=O)c2)n1` [CBK269833], the “% of control remaining” value is recorded as 98.5602%.

In the case of `O=C(C1CC1)N1CCC(Cn2nc(-c3ccccc3)ccc2=O)CC1` [CBK284115], the “% of control remaining” value came to 113.904%.

In the case of `O=S1(=O)CC(NCc2ccccc2)C(Nc2ccccc2)C1` (stereo not shown) [CBK265797], the “% of control remaining” value is 179.686%.

For the compound `O=c1cc2nc(-c3ccccc3F)[nH]c(=S)n2[nH]1` [CBK288402], the “% of control remaining” value is listed as 135.469%.

For the compound `N#Cc1cccc(C(=O)NCCc2cn3c(n2)CCCC3)c1` [CBK305046], the “% of control remaining” value came to 90.5695%.

Take `COc1ccc(N(C(C)C(=O)N/N=C2\C(=O)Nc3ccccc32)S(C)(=O)=O)cc1` (stereo not shown) [CBK262408]: the “% of control remaining” value is 119.307%.

Consider `CC(=O)N1CCCCC[C@@H]2[C@@H]1C[C@@H](Cc1ccccc1)N2C(=O)c1ccccc1` [CBK285576], for which the “% of control remaining” value came out at 97.5379%.

On to `Cn1cc(C(=O)NC2CCN(c3ccc(C#N)cc3F)CC2)cn1` [CBK304939], for which the “% of control remaining” value is reported as 132.019%.

For `CN(C)c1ccc(-c2cncc(NCc3ccc4c(c3)OCO4)n2)cc1` [CBK037190], the “% of control remaining” value worked out at 108.355%.

As for `Cc1ccc(-c2cncc(N3CCCC3CO)n2)cc1C` (stereo not shown) [CBK065945], the “% of control remaining” value amounted to 182.077%.

For the compound `N#Cc1cnn(-c2ccc(Cl)cc2Cl)c1N` [CBK086125], the “% of control remaining” value amounted to 125.68%.

As for `COc1ccc(Br)c(C(CO)N(C)C(=O)Cc2cnccc2C)c1` (stereo not shown) [CBK306267], the “% of control remaining” value is on record as 114.481%.

As for `O=P(O)(COc1ccccc1)COc1ccccc1` [CBK261620], the “% of control remaining” value came out at 119.446%.

Consider `Cc1nccn1CCC(=O)N1CCc2[nH]c3ccccc3c2C1` [CBK281882], for which the “% of control remaining” value came to 111.337%.

Take `CC(C)Cn1cncc1CNS(=O)(=O)c1cccc(C(=O)N2CCC2)c1` [CBK307068]: the “% of control remaining” value is listed as 115.471%.

`CCCCc1c(Cl)nc(C#N)c2c1CCCC2` [CBK020252]: the “% of control remaining” value stood at 124.462%.

`CSc1nsc(SCc2cnc(C)nc2N)n1` [CBK268337]: the “% of control remaining” value amounted to 112.758%.

Turning to `CN1C(=O)COc2ccccc2C/C=C/C[C@H]2CN(C(=O)C3CCC3)CC[C@H]21` [CBK292087], the “% of control remaining” value stood at 111.843%.

For the compound `CCOC(=O)N1CCN(Cc2ccc(OCc3cccnc3)cc2)CC1` [CBK305883], the “% of control remaining” value turned out to be 120.535%.

Regarding `CC(C)c1ccc(/C=C/C(=O)NCCN2CCOCC2)cc1` [CBK149631], the “% of control remaining” value is given as 100%.

For `CN1CCN(S(=O)(=O)c2ccccc2Br)CC1` [CBK062435], the “% of control remaining” value is 94.8446%.

Regarding `Cc1noc(C)c1NC(=O)c1c(-c2ccccc2)noc1C` [CBK200314], the “% of control remaining” value is given as 148.56%.

As to `COc1ccc2[nH]cc(C(=O)NCCn3nc(C)c(C)c3C)c2c1` [CBK281389], the “% of control remaining” value amounted to 117.455%.

As for `CCOC(=O)c1ccc(/N=C2/NC(=O)/C(=C\c3ccccc3OCC(=O)O)S2)cc1` [CBK265658], the “% of control remaining” value was 99.1252%.

Consider `Cc1nc2c(C(=O)NCCCOC(C)C)cnn2c(C)c1Cc1cccc(Cl)c1` [CBK162043], for which the “% of control remaining” value is reported as 144.569%.

Regarding `Cc1cccc(-c2ncc(NC(=O)Cc3ccc(OC(F)(F)F)cc3)nc2-c2cccnc2)c1` [CBK037030], the “% of control remaining” value is on record as 119.761%.
